Laboratory results: PubChem BioAssay AID1259254 (NCATS, 2017)

Assay: 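Genome-wide screen for genes that prevent DNA re-replication in cancer cells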 (primary screen)
Cells: human HCT116 colorectal cancer cells
Knock-down reagent: single siRNA against human genes
Duration: 3 days
Read-out: 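Nuclei stained with Hoechst and imaged; cell-cycle phase assigned by DNA content; G2 share scaled per plate, non-targeting siRNA 0%, GMNN siRNA 100%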
Reading the numbers: G2 robust z-score: higher = more G2 cells, more excess DNA replication
Active means: 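Active siRNAs have a G2 robust z of 5 or more median absolute deviations over the median, which in these data means about 38% or higher of GMNN control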
The whole screen tested about 59,000 reagents; shown is an unselected part. Of all reagents, about 1,550 (2.6%) were called active. 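G2 share is only a proxy for re-replication; each gene was hit by three separate siRNAs, and active genes were retested.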 The numbers tell different reagents against one gene apart. Not all columns of the deposit are shown. No sequences are given here. Not given: the amount of reagent.

G2 robust z-score, by gene and reagent
CADM4 (cell adhesion molecule 4): #1 0.166 inactive; #2 0.00162 inactive; #3 0.201 inactive
AAGAB (alpha and gamma adaptin binding protein): #1 -0.212 inactive; #2 0.559 inactive; #3 -0.929 inactive
KLHDC3 (kelch domain containing 3): #1 0.475 inactive; #2 0.236 inactive; #3 -0.214 inactive
CKAP2 (cytoskeleton associated protein 2): #1 1.09 inactive; #2 -0.222 inactive; #3 2.02 inactive
NID2 (nidogen 2): #1 -0.00876 inactive; #2 0.269 inactive; #3 0.187 inactive
ADGRA3 (adhesion G protein-coupled receptor A3): #1 -1.37 inactive; #2 -1.24 inactive; #3 -0.0115 inactive
TSHB (thyroid stimulating hormone subunit beta): #1 4.81 inactive; #2 2.11 inactive; #3 -0.107 inactive
GPATCH2 (G-patch domain containing 2): #1 -0.669 inactive; #2 1.28 inactive; #3 -0.478 inactive
TTC9B (tetratricopeptide repeat domain 9B): #1 0.631 inactive; #2 3.11 inactive; #3 -0.0118 inactive
KLK13 (kallikrein related peptidase 13): #1 -0.476 inactive; #2 -0.338 inactive; #3 0.408 inactive
